In the supplement of paper PMC10849652:
The other results are listed elsewhere or left out.

Chains of the proteins cited; added tags and fusions are not shown. Lines headed by an entry give the natural chain unless they say otherwise; changes in a name come on top.
UniProt Q9BTF0: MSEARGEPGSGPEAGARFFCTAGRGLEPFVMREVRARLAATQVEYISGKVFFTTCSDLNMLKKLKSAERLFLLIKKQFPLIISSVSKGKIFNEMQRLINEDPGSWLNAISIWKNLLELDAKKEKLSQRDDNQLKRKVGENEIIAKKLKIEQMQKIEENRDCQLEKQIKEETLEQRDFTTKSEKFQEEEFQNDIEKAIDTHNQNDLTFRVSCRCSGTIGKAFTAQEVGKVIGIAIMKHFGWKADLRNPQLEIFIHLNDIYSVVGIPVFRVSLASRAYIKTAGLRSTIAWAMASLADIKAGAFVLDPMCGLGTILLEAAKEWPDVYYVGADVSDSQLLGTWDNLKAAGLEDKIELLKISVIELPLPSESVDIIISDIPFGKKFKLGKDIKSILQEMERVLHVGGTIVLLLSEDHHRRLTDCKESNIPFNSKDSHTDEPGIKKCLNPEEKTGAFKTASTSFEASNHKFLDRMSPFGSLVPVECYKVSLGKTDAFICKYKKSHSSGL
UniProt O43493: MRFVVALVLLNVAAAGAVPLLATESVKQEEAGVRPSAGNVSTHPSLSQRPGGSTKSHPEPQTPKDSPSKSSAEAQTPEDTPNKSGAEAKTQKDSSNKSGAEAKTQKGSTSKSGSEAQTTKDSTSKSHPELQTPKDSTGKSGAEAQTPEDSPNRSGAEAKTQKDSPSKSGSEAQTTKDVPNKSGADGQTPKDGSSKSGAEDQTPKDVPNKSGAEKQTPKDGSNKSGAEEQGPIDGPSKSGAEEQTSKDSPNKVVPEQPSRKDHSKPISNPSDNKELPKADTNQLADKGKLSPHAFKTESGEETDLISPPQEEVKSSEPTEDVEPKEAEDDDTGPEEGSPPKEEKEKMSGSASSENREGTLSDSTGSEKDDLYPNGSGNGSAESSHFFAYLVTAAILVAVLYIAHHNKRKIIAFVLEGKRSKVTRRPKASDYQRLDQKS
UniProt Q969X1: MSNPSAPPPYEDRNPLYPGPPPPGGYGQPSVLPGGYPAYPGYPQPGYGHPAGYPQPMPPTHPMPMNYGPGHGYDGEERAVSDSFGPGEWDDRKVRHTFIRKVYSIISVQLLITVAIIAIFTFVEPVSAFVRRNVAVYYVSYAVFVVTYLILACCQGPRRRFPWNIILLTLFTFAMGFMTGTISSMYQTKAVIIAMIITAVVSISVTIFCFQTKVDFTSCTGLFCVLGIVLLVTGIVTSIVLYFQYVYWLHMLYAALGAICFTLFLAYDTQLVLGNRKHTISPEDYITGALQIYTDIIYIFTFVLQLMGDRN
UniProt O14925: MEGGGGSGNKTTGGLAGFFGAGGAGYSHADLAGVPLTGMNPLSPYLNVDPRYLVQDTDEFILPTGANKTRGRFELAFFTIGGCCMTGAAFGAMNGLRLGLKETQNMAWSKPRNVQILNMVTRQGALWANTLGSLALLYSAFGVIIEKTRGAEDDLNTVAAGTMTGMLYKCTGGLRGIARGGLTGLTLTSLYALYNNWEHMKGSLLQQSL
UniProt Q9H7F4: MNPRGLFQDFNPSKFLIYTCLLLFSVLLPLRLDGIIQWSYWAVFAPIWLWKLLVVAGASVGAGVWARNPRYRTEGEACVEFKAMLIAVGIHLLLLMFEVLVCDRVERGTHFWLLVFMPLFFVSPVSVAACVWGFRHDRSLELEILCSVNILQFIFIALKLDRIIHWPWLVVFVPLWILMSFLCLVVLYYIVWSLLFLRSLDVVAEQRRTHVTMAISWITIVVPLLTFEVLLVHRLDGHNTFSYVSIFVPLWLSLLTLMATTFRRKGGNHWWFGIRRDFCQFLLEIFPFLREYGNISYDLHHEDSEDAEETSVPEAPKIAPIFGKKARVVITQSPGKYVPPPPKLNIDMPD
UniProt Q9P016: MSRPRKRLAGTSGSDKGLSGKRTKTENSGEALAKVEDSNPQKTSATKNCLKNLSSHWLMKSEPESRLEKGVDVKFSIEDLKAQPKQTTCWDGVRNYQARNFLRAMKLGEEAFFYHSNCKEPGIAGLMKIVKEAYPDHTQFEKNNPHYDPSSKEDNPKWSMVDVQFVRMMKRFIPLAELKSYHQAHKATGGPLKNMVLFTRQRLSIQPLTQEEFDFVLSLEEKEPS
UniProt P55061, whole entry, looked up: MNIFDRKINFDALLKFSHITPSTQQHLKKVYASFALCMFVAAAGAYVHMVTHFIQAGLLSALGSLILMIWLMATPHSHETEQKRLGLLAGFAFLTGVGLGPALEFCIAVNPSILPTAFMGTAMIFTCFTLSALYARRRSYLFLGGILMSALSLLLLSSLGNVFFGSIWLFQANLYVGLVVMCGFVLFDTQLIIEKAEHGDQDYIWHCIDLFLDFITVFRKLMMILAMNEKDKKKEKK
UniProt P52888, whole entry, looked up: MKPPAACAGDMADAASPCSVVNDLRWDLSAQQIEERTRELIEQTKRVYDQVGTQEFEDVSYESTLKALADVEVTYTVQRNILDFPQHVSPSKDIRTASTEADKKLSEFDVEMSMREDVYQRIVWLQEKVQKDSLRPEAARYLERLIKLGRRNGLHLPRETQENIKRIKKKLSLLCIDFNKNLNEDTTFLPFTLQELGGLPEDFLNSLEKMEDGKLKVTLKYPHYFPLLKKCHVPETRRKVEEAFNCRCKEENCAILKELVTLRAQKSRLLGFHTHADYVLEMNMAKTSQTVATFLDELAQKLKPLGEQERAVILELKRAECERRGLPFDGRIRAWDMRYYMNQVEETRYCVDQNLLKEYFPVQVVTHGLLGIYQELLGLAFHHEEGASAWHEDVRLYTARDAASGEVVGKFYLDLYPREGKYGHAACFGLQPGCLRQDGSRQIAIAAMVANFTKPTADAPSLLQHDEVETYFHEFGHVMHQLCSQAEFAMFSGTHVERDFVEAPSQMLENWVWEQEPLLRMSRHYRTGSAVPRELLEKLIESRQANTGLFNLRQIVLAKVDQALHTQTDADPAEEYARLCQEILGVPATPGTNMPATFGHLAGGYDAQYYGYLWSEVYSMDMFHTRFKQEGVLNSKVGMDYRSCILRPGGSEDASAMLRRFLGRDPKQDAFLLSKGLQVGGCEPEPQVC
UniProt Q96DC7: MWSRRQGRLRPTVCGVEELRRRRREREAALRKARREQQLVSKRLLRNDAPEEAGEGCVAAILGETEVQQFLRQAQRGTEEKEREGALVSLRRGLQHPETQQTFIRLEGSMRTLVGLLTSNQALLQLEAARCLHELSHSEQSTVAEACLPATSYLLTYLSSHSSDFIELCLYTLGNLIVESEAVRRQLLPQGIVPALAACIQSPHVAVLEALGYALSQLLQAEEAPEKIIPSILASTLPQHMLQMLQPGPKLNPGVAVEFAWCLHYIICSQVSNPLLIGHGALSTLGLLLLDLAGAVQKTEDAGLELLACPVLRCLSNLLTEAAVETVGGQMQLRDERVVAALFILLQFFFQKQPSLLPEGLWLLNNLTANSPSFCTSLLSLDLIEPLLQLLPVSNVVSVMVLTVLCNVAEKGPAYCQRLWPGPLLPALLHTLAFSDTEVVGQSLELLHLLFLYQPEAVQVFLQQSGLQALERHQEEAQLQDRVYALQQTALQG
UniProt Q9BVC6: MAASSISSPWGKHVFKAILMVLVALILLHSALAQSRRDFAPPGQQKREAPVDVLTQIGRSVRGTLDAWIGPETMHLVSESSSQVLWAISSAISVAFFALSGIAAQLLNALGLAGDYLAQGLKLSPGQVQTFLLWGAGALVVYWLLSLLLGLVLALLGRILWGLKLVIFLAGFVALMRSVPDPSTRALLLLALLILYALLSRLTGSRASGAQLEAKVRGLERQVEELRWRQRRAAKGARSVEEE
UniProt Q96FV9: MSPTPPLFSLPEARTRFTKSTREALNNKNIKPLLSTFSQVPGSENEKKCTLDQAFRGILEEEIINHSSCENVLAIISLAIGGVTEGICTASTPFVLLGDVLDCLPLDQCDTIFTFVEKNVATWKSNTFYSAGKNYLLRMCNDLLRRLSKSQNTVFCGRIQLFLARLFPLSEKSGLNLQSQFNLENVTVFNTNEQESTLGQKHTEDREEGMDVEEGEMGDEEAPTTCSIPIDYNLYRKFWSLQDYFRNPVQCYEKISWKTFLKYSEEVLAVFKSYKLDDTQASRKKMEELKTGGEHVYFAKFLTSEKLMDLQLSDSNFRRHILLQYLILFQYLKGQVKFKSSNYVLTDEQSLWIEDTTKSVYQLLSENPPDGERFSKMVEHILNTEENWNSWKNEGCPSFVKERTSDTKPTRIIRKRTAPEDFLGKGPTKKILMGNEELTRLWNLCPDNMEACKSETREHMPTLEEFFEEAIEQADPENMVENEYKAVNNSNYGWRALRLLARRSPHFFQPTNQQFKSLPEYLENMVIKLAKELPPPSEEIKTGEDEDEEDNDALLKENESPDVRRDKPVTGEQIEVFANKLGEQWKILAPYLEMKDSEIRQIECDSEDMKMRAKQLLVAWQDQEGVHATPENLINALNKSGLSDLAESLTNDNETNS
UniProt Q9NX61: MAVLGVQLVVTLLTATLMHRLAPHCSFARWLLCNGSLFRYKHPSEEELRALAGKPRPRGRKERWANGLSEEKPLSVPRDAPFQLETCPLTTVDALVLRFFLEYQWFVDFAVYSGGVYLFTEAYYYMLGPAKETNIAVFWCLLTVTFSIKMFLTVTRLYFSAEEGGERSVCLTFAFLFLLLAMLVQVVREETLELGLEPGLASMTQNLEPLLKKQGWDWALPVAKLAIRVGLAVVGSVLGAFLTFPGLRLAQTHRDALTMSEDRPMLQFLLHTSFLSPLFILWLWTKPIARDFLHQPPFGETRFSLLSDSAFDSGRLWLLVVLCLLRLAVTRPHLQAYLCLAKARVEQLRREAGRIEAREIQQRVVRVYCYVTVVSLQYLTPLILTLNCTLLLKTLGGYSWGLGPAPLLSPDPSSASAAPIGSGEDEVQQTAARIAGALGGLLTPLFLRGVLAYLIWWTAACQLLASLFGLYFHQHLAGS
UniProt P49755: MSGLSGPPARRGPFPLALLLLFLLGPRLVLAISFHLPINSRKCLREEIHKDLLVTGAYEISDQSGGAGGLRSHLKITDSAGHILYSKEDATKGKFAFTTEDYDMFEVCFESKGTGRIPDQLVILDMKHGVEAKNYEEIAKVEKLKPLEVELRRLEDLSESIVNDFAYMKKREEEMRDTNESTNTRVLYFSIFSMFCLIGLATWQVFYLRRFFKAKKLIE
UniProt O75663: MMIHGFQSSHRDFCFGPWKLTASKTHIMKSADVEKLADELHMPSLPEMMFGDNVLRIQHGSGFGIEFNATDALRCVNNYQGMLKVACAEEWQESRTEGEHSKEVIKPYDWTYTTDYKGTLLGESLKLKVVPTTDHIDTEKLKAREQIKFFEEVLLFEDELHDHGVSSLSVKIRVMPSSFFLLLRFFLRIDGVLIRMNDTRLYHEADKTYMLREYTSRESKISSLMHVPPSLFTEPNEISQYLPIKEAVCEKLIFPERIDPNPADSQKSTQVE
UniProt O60830: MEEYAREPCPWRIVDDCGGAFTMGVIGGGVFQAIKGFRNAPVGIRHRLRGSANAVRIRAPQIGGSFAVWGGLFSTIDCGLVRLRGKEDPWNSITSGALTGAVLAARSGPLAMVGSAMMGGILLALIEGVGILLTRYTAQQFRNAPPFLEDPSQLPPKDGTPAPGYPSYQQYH
UniProt Q3ZCQ8: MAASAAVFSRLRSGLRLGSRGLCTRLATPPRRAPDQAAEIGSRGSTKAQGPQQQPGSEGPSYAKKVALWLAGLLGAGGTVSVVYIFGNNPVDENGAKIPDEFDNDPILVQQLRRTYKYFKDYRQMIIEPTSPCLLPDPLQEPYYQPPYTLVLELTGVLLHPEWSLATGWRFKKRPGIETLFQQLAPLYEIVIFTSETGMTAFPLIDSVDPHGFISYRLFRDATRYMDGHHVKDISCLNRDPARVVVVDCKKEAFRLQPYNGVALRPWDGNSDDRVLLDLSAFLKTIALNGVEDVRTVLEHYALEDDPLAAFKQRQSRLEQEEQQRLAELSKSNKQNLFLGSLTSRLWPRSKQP
UniProt Q6PL24: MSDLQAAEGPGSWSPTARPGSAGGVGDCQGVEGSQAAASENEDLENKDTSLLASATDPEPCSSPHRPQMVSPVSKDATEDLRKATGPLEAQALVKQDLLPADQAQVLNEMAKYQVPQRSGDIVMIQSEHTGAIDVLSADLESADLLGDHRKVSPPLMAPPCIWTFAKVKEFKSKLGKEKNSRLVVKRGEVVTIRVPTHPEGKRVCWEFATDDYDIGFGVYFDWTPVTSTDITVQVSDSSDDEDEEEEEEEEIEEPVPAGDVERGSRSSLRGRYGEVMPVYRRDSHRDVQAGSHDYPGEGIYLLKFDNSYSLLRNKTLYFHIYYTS
UniProt Q01085: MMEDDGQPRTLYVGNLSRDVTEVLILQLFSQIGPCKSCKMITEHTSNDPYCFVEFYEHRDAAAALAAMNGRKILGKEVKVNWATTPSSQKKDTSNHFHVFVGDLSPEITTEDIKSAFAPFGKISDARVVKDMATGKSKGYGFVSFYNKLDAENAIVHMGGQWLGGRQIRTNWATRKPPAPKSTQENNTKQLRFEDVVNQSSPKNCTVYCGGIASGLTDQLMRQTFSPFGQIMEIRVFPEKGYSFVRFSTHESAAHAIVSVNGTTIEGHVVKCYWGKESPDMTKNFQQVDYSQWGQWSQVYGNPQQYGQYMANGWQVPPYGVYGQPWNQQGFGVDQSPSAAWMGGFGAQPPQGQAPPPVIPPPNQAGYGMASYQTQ

The targets below were run with Cc1cc(Nc2cc(CN3CCOCC3)c3nc(C)c(Cc4ccc(Cl)cc4F)n3n2)n[nH]1 [gandotinib] (assay: log2 fold change, soluble protein after heating vs DMSO (PISA); higher = thermal stabilisation; K562 lysate, 10 uM; active = over 0.2 and 3.5 SD of the protein, either way, in both replicates (recomputed)).
Procedure, shortened: (§1)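 K562 pellets were dounce-homogenised in PBS pH 7.4 with 1 mM MgCl2, and the crude extract at 1 mg/mL protein was treated with 10 μM compound for 30 min. Aliquots were heated for 3 min across 48°C-58°C, pooled, and brought to 0.5% NP-40 at 4°C; soluble protein was the supernatant after 21,000xg for 90 min. Soluble protein was quantified by TMTpro 16plex LC-MS/MS with channel sums equalised, and reported as log2 fold change in thermal stability against DMSO controls, with values from duplicates.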

log2 fold change, inactive:
TICAM2 isoform 2 (UniProt Q86XR7) 0.027
THUMPD2 (UniProt Q9BTF0) -0.014
TMCO1 (UniProt Q9UM00) -0.077
TGOLN2 isoform 7 (UniProt O43493) 0.034
TMBIM1 (UniProt Q969X1) 0.038
TMEM120A (UniProt Q9BXJ8) -0.217
TIMMDC1 (UniProt Q9NPL8) 0.027
TIMM23 (UniProt O14925) 0.004
TJP2 isoform 7 (UniProt Q9UDY2) -0.068
TMEM185B (UniProt Q9H7F4) -0.056
TM9SF4 (UniProt Q92544) 0.055
TMEM168 (UniProt Q9H0V1) -0.01
TMEM164 (UniProt Q5U3C3) 0.27
THYN1 (UniProt Q9P016) -0.083
THNSL1 (UniProt Q8IYQ7) -0.051
TMBIM6 isoform 2 (UniProt P55061) 0.002
THOP1 (UniProt P52888) 0.028
TMCO6 isoform 2 (UniProt Q96DC7) -0.151
TMEM109 (UniProt Q9BVC6) 0.025
THOC5 (UniProt Q13769) -0.021
THOC1 (UniProt Q96FV9) -0.01
TLE4 isoform 3 (UniProt Q04727) 0.026
TGS1 (UniProt Q96RS0) 0.045
TIMM29 (UniProt Q9BSF4) 0.042
TLN2 (UniProt Q9Y4G6) -0.02
TMEM126A (UniProt Q9H061) 0.013
TMED5 (UniProt Q9Y3A6) -0.033
TMA7 (UniProt Q9Y2S6) 0.029
TIMM22 (UniProt Q9Y584) 0.11
TMEM161A (UniProt Q9NX61) -0.363
TIMM44 (UniProt O43615) 0.136
THEM4 (UniProt Q5T1C6) 0.026
TMED10 (UniProt P49755) -0.047
TMA16 (UniProt Q96EY4) -0.028
TIPRL (UniProt O75663) 0.027
TIMM17A (UniProt Q99595) 0.028
TIMM17B (UniProt O60830) 0.037
TIMM50 isoform 2 (UniProt Q3ZCQ8) -0.147
TMED8 (UniProt Q6PL24) -0.007
TIAL1 isoform 2 (UniProt Q01085) 0.054

The targets below were run with Cc1cc(Nc2cc(N3CCN(C)CC3)nc(Sc3ccc(NC(=O)C4CC4)cc3)n2)n[nH]1 [tozasertib] in the same assay as above.
Procedure, shortened: as §1

log2 fold change, inactive:
TICAM2 isoform 2 (UniProt Q86XR7) 0.001
THUMPD2 (UniProt Q9BTF0) -0.011
TMCO1 (UniProt Q9UM00) 0.047
TGOLN2 isoform 7 (UniProt O43493) -0.065
TMBIM1 (UniProt Q969X1) 0.177
TMEM120A (UniProt Q9BXJ8) 0.068
TIMMDC1 (UniProt Q9NPL8) -0.009
TIMM23 (UniProt O14925) 0
TJP2 isoform 7 (UniProt Q9UDY2) 0.005
TMEM185B (UniProt Q9H7F4) 0.073
TM9SF4 (UniProt Q92544) 0.049
TMEM168 (UniProt Q9H0V1) -0.054
TMEM164 (UniProt Q5U3C3) -0.091
THYN1 (UniProt Q9P016) 0.067
THNSL1 (UniProt Q8IYQ7) 0.035
TMBIM6 isoform 2 (UniProt P55061) 0.114
THOP1 (UniProt P52888) -0.013
TMCO6 isoform 2 (UniProt Q96DC7) -0.117
TMEM109 (UniProt Q9BVC6) 0.009
THOC5 (UniProt Q13769) -0.01
THOC1 (UniProt Q96FV9) 0.028
TLE4 isoform 3 (UniProt Q04727) 0.01
TGS1 (UniProt Q96RS0) 0.022
TIMM29 (UniProt Q9BSF4) -0.071
TLN2 (UniProt Q9Y4G6) -0.006
TMEM126A (UniProt Q9H061) 0.016
TMED5 (UniProt Q9Y3A6) 0.016
TMA7 (UniProt Q9Y2S6) 0.023
TIMM22 (UniProt Q9Y584) -0.02
TMEM161A (UniProt Q9NX61) 0.047
TIMM44 (UniProt O43615) 0.019
THEM4 (UniProt Q5T1C6) -0.018
TMED10 (UniProt P49755) 0.005
TMA16 (UniProt Q96EY4) 0.015
TIPRL (UniProt O75663) 0.004
TIMM17A (UniProt Q99595) -0.082
TIMM17B (UniProt O60830) 0.017
TIMM50 isoform 2 (UniProt Q3ZCQ8) 0.01
TMED8 (UniProt Q6PL24) -0.026
TIAL1 isoform 2 (UniProt Q01085) 0.011
